Experimental data taken from patent US10792377B2, “Compounds and method for imaging cancer” (Vanderbilt University, priority 2017, dated 2020).
Some entries share one result that the patent states for a list of compounds.

Assay: Fluorometry: extinction, quantum yield, fluorescence in DMSO/EtOH
Type: physicochemical
Settings: non-trapped form for the quenched probes
Method: The TEMPO- and PROXYL-fluorocoxib probes are non-fluorescent (Φfl<0.3) in their non-trapped form, whereas fluorocoxib A or B are highly fluorescent (Φfl[…]) (FIG. 13). However, the absorbance and fluorescence of the TEMPO- and PROXYL-fluorocoxib probes increases in a time-dependent fashion when incubated in a DMSO/EtOH solution (FIGS. 14-15). Referring to FIG. 15, it is noted that at about 16 hours, fluorescence (ex 586 nm) read about 120,000 cps at 607 nm. Turning to FIG. 16, as compared to 5-ROX acid, which had extinction of 36/mM/cm at 580 nm and quantum yield of 0.94 at 604 nm, and fluorocoxib A, which had extinction of 45/mM/cm at 579 nm and quantum yield of 0.93 at 602 nm, fluorocoxib Q1 had extinction of less than 0.4/mM/cm at 586 nm and quantum yield of less than 0.36 at 607 nm. Without wishing to be bound by theory, it is believed that the time-dependent increase in fluorescence and measured fluorescence at 607 nm is the result of reduction/oxidation of fluorocoxib Q1 in the DMSO/EtOH solution (FIG. 16).
Fluorometry. Steady state fluorescence excitation and emission spectra were determined for each compound with a Spex 1681 Fluorolog spectrofluorometer, equipped with a 450 W xenon arc lamp. […]

Q: Which Φfl does the source give for `COc1ccc2c(c1)c(CC(=O)NCCCCNC(=O)c1ccc(C3=c4cc5c6c(c4Oc4c3cc3c7c4CCCN7CCC3)CCC[N+]=6CCC5)c(C(=O)[O-])c1)c(C)n2C(=O)c1ccc(Cl)cc1` [Fluorocoxib A, reference compound] here?
A: The Φfl was under 0.9.

Q: For `COc1ccc2c(c1)c(CC(=O)NCCCCNC(=O)c1ccc(C(=O)[O-])c(C3=c4cc5c6c(c4Oc4c3cc3c7c4CCCN7CCC3)CCC[N+]=6CCC5)c1)c(C)n2C(=O)c1ccc(Cl)cc1` [Fluorocoxib B, reference compound], which Φfl is on record?
A: Its Φfl is under 0.9.
